Data published in PMC8589989.
For some assays here: A weaker result is weaker than the reference pair of the same experiment. For some assays here: Where a protein sequence is shown, tags need not be part of it. The exact form of at least one protein or probe is not confirmed. For some assays here: Negatives hold for the conditions tested. For some assays here: At least one verdict was read from the data and is not stated in words by the source.

Assays:
His-MBP-ZNF384 (human) = system: T1, His-MBP-ZNF384 (human); experiment: pull-down; details: Pull-down: 10 mM Tris pH 7.5, 150 mM KCl, 5 mM MgCl2, 0.25% Tween-20, 3.5 mM DTT, 5% glycerol, 0.1% BSA, 4 C, recombinant protein, residues 1-516, protein details: His6-MBP
T1 sequence (looked up): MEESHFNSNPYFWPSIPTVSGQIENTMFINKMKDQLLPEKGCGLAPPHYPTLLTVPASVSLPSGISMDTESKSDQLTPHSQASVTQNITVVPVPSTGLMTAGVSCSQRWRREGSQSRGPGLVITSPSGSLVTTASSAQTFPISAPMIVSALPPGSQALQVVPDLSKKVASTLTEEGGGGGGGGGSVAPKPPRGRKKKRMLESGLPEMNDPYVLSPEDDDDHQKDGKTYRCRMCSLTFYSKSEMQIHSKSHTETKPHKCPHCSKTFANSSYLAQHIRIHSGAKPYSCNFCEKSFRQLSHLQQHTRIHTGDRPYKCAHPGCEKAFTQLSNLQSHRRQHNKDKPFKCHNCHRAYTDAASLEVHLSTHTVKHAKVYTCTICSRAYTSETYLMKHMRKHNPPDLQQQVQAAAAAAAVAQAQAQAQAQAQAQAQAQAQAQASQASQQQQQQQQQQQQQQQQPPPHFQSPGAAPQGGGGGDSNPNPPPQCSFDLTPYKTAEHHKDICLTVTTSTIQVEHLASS

[1] = system: His-MBP-C2H2 (ZNF384 C2H2 domain) (human); experiment: BLI; details: 400 nM protein, BLI: 10 mM Tris pH 7.5, 150 mM KCl, 5 mM MgCl2, 0.05% Tween-20, 0.1% BSA, 1 mM DTT, 298 K, recombinant protein, protein details: His6-MBP
[2] = system: His-MBP-C2H2 (ZNF384 C2H2 domain) (human); experiment: pull-down; details: Pull-down: 10 mM Tris pH 7.5, 150 mM KCl, 5 mM MgCl2, 0.25% Tween-20, 3.5 mM DTT, 5% glycerol, 0.1% BSA, 4 C, recombinant protein, protein details: His6-MBP
[3] = system: His-MBP-C-terminus (ZNF384) (human); experiment: BLI; details: 400 nM protein, very poor to no binding; BLI: 10 mM Tris pH 7.5, 150 mM KCl, 5 mM MgCl2, 0.05% Tween-20, 0.1% BSA, 1 mM DTT, 298 K; recombinant protein; protein details: His6-MBP; label: 5' biotin on strand 1
[4] = system: His-MBP-N-terminus (ZNF384) (human); experiment: BLI; details: 400 nM protein, very poor to no binding; BLI: 10 mM Tris pH 7.5, 150 mM KCl, 5 mM MgCl2, 0.05% Tween-20, 0.1% BSA, 1 mM DTT, 298 K; recombinant protein; protein details: His6-MBP; label: 5' biotin on strand 1
[5] = system: His-MBP-C-terminus (ZNF384) (human); experiment: pull-down; details: very poor to no binding; Pull-down: 10 mM Tris pH 7.5, 150 mM KCl, 5 mM MgCl2, 0.25% Tween-20, 3.5 mM DTT, 5% glycerol, 0.1% BSA, 4 C; recombinant protein; protein details: His6-MBP; label: 5' biotin on strand 1
[6] = system: His-MBP-N-terminus (ZNF384) (human); experiment: pull-down; details: very poor to no binding; Pull-down: 10 mM Tris pH 7.5, 150 mM KCl, 5 mM MgCl2, 0.25% Tween-20, 3.5 mM DTT, 5% glycerol, 0.1% BSA, 4 C; recombinant protein; protein details: His6-MBP; label: 5' biotin on strand 1
His-MBP = experiment: pull-down; details: not detectable; Pull-down: 10 mM Tris pH 7.5, 150 mM KCl, 5 mM MgCl2, 0.25% Tween-20, 3.5 mM DTT, 5% glycerol, 0.1% BSA, 4 C; recombinant protein; protein details: His6-MBP; label: 5' biotin on strand 1
[7] = label: 5' biotin, single-stranded DNA
[8] = seemingly lower affinity than ssDNA, label: 5' biotin on strand 2

GCGATCATGACGTAGACGATAGCGTTCTTTTTTTTTCTTTTTCT (double strand) [dsDNA3'-T]
binding result (His-MBP-ZNF384 (human); bound poorly, if at all, to dsDNA, label: 5' biotin on strand 1): binds more weakly

GCGATCATGACGTAGACGATAGCGTTCTTTTTTTTTCTTTTTCT [ssDNA T-strand (ssDNA(T))]
binding result [1, 7]: binds | binding result [2, 7]: binds

TTCTTTTTTTTTCTTTTTCTGCGATCATGACGTAGACGATAGCG (double strand) [dsDNA5'T]
binding result (His-MBP-ZNF384 (human); bound poorly, if at all, to dsDNA, label: 5' biotin on strand 2): binds more weakly

GCGATCATGACGTAGACGATAGCGTTCTTTTTTTTTCTTTTTCT / CGCTATCGTCTACGTCATGATCGC [3' overhang DNA]
binding result [3]: no binding | binding result ([1]; comparable to full length, label: 5' biotin on strand 1): binds | binding result [4]: no binding | binding result [5]: no binding | binding result ([2]; seemingly lower affinity than ssDNA, label: 5' biotin on strand 1): binds | binding result [6]: no binding | binding result (His-MBP): no binding

TTCTTTTTTTTTCTTTTTCTGCGATCATGACGTAGACGATAGCG / CGCTATCGTCTACGTCATGATCGC [5' overhang DNA]
binding result [1, 8]: binds | binding result [2, 8]: binds

CGCTATCGTCTACGTCATGATCGCAGAAAAAGAAAAAAAAAGAA [ssDNA A-strand]
binding result (His-MBP-ZNF384 (human); T-rich preferred as opposed to A-rich ssDNA, label: 5' biotin, single-stranded DNA): binds more weakly
